# Source: publication PMC11045757, “Group 3 medulloblastoma transcriptional networks collapse under domain specific EP300/CBP inhibition” (Nature Communications, 2024)
# “And” between values parts separate entries of the source, which are not always exact repeats. Equal entries are not always repeated. This continues a long series; more values of the same kind are listed elsewhere.
# System: HDMB03 (HDMBO3) group 3 medulloblastoma cells
# Experiment: CellTiter-Glo dose-response growth assay
# Format: cell-based
# Settings: HDMBO3, log10[compound], M = -5.73
# Experimental: CellTiter-Glo assay was performed as per the manufacturer’s instructions, at the noted timepoint after compound treatment or plating. For Kelly, TE617T, RhJT, NCIH2122, NCIH650 and 143B, 500 cells were plated in normal growth media per well in a 384-well plate (Corning). HDMB03 and MB002 cells were plated in growth media at 500 cells/well in a 384-well plate. […] Cells were incubated for the noted timepoints prior to performing CellTiter-Glo assay as per the manufacturer’s instructions, and reading plates on an Envision 2104 microplate reader.
smiles,measurement,value
CO[C@H]1CC[C@H](n2c([C@@H]3CCCC(=O)N3c3ccc(F)c(F)c3)nc3cc(-c4c(C)noc4C)ccc32)CC1 [CCS1477],"normalized growth (fraction of control), replicate values",0.044 and 0.04 and 0.041 and 0.022 and 0.023 and 0.035 and 0.031
